Article PMC11898301
No constants are given. Whether binding was seen depends on the method and setting. In cells and extracts the contact can be indirect. Binding calls can cover weak binding; strength is not graded here. Tags and fused reporters may be left off the sequences shown.

Amino acid sequences for entries named in this document (tags omitted). A change or cut given only in a name is not applied to a line headed by its entry.
UniProt Q969H0: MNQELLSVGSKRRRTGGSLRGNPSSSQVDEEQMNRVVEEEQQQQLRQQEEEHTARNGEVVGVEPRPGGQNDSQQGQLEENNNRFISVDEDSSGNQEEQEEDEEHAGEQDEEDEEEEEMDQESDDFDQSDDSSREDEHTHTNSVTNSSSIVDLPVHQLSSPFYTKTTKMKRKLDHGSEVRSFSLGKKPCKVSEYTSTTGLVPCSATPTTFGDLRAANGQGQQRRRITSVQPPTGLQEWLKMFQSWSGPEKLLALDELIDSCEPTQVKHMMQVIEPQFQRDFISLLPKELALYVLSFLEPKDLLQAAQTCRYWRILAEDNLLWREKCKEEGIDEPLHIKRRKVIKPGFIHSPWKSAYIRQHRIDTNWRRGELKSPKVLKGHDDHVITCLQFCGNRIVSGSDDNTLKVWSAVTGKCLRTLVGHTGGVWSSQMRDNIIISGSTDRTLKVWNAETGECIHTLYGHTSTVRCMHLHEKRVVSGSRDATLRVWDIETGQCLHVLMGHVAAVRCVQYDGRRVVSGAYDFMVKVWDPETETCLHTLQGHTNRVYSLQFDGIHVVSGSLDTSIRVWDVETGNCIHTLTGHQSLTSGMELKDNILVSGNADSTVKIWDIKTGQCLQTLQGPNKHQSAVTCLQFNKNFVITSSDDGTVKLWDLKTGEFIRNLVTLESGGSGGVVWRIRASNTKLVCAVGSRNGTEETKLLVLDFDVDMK

Biological target: T1, HA-PRR11-WT (proline-rich 11) (human) (UniProt Q96HE9)
T1 sequence: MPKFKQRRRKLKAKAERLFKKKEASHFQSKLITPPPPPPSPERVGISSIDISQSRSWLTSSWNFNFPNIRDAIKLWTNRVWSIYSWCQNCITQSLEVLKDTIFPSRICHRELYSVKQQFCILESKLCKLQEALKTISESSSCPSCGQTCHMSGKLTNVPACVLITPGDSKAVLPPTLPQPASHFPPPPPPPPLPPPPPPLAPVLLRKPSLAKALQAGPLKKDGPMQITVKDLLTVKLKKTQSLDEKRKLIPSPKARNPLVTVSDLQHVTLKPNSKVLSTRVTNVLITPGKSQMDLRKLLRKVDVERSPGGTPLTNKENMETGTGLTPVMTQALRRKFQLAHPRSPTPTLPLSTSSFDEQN
Assay: co-IP; 293T cells transfected with HA-PRR11 (WT, fragments or mutants) and Flag-GSK3β or Flag-FBXW7 (WT or mutants); MG132 10 μM for 6 h before collection; IP with HA or Flag antibody, Protein A/G magnetic beads, Western blot; in some panels λ-PPase added to extracts, CHIR-99021, siGSK3β or GSK3β overexpression

## Flag-FBXW7 (ΔF-box) (from UniProt Q969H0)
  binding: binds
